Paper PMC5062614
No constants are given. Whether binding was seen depends on the method and setting. For some assays here: Binding can be weak; no strength is given. Tags and fused reporters may be left off the sequences shown. For some assays here: Binding seen in cells or lysates may run through a third protein.

Tests used:
[1] = biological target: T1, NPR3-nLuc (Arabidopsis) (UniProt Q8L746); test: split reporter; split luciferase; cLuc-JAZ and NPR3-nLuc or NPR4-nLuc transiently co-expressed in N. benthamiana leaves for 2 days; 1 mM luciferin; images 0 and 3 h after 1 mM SA treatment
T1 sequence: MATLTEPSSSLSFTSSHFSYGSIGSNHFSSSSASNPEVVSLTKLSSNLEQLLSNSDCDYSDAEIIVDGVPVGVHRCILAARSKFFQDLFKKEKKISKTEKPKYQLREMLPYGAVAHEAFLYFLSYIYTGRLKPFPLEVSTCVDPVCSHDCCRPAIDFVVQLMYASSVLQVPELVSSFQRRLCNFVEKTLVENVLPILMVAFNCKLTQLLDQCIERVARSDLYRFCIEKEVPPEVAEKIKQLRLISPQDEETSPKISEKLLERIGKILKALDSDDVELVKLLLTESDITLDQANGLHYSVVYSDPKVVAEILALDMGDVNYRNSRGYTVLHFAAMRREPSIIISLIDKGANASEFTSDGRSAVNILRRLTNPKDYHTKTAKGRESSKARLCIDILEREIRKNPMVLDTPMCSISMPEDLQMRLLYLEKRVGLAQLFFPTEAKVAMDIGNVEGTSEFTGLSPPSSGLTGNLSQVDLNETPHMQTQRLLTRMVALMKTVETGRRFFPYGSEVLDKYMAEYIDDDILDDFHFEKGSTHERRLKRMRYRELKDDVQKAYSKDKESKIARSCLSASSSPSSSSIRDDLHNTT

[2] = biological target: T2, NPR4-nLuc (Arabidopsis) (UniProt Q5ICL9); test: as above
T2 sequence: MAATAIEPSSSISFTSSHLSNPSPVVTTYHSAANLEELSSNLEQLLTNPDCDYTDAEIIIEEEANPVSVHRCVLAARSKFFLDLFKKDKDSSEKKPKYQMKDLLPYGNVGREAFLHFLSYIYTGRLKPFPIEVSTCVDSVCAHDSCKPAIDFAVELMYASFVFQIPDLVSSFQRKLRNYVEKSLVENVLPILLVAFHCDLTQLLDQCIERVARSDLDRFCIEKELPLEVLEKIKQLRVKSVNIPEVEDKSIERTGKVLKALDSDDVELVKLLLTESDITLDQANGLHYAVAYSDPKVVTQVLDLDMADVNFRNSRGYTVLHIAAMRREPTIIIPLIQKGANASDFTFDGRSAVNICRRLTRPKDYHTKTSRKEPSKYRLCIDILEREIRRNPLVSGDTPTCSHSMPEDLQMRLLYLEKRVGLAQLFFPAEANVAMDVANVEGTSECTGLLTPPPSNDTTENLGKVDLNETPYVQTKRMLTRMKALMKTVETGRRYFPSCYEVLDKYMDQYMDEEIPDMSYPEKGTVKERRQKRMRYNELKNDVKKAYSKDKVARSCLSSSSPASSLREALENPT

[3] = biological target: T3, NPR4 fused with the DNA binding domain (BD) (Arabidopsis) (UniProt Q5ICL9); test: two-hybrid; AD-JAZ (pGADT7) mated with BD-NPR4 (pGBKT7); SD-Leu-Trp-His-Ade plates without and with 100 μM SA; the text does not tell on which plates each result was seen
T3 sequence: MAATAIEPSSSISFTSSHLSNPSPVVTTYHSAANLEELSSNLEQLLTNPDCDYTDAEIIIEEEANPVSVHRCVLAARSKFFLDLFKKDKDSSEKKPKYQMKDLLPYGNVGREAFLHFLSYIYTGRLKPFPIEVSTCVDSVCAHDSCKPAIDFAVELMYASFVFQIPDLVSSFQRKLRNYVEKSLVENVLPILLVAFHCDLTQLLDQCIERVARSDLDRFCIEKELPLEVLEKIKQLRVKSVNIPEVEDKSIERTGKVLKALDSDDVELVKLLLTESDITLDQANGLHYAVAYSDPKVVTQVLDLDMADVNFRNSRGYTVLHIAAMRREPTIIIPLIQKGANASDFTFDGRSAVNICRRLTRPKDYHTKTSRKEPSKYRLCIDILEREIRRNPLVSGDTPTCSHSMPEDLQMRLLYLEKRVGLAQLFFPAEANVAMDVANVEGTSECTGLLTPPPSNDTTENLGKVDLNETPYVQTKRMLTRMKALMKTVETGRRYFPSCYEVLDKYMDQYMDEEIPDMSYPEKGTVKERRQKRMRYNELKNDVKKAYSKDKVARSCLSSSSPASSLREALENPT

[4] = biological target: T4, NPR3 fused with the DNA binding domain (BD) (Arabidopsis) (UniProt Q8L746); test: two-hybrid; AD-JAZ (pGADT7, AH109) mated with BD-NPR3 or its derivatives (pGBKT7, Y187); growth on SD-Leu-Trp-His-Ade plates with 100 μM SA
T4 sequence: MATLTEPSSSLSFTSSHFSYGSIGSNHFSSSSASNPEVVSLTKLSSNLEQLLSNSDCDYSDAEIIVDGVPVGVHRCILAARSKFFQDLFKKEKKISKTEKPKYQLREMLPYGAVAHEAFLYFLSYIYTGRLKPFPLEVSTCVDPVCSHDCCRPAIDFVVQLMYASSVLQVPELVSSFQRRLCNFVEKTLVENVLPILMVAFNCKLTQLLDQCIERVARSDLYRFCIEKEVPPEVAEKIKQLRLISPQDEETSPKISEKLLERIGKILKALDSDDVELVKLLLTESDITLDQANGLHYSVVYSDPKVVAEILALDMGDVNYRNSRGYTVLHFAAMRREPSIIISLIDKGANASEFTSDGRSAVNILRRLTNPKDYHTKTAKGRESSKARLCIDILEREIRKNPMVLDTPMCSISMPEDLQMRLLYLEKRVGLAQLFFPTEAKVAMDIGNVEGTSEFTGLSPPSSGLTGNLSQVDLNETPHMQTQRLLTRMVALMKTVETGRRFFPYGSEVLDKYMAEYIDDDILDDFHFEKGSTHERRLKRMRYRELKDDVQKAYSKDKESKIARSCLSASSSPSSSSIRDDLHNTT

[5] = biological target: T4, NPR3 fused with the DNA binding domain (BD) (Arabidopsis); test: two-hybrid; AD-JAZ (pGADT7, AH109) mated with BD-NPR3 or its derivatives (pGBKT7, Y187); growth on SD-Leu-Trp-His-Ade plates without SA
[6] = biological target: T5, NPR4-GFP (expressed in N. benthamiana) (Arabidopsis) (UniProt Q5ICL9); test: co-IP; Myc-JAZ1 co-expressed with NPR3-GFP, NPR4-GFP or GFP in N. benthamiana leaves; extract in 50 mM Tris pH 7.5, 150 mM NaCl, 0.1% Triton X-100, 0.2% NP-40, 40 μM MG115; 100 μM SA added; GFP-Trap_A beads 2 h at 4 °C; blot with Myc antibody
T5 sequence: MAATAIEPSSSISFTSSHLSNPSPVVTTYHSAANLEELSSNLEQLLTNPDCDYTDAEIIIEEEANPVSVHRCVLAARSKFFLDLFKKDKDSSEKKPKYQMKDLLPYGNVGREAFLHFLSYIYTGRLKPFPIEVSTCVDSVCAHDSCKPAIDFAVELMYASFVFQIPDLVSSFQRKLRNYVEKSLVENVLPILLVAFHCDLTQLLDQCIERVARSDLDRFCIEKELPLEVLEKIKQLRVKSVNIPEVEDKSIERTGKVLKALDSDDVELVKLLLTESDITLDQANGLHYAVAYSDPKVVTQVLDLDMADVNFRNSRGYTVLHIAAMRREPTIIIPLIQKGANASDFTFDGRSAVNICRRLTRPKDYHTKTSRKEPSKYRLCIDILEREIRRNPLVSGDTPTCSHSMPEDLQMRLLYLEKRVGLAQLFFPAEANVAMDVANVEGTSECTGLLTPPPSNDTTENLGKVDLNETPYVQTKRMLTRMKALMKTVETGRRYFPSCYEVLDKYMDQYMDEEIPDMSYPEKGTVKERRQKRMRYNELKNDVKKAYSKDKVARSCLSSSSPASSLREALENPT

[7] = biological target: T6, NPR3-GFP (expressed in N. benthamiana) (Arabidopsis) (UniProt Q8L746); test: as above
T6 sequence: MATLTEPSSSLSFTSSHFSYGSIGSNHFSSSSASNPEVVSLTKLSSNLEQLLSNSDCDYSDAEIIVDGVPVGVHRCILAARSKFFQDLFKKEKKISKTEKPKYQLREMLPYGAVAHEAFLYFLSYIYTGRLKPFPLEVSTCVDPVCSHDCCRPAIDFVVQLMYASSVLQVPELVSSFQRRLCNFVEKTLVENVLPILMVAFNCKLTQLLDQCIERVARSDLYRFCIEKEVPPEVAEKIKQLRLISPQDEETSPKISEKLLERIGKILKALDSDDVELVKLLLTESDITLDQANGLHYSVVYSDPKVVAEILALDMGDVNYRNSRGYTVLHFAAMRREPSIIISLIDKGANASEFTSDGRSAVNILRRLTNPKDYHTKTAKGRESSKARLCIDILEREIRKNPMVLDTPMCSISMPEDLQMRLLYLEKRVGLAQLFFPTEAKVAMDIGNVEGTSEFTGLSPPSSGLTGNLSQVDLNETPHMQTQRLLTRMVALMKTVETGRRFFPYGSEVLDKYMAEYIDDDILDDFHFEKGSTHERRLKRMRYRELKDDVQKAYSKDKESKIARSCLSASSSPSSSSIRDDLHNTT

binding [4] | Substance | binding [5] | other results
– | cLuc-JAZ1 (Arabidopsis) | – | binding [1]: binds; binding [2]: binds
binds | JAZ1 fused with the transcriptional activation domain (AD) (Arabidopsis) | no binding (only without SA in the yeast medium) | binding [3]: no binding
binds | JAZ6 fused with the transcriptional activation domain (AD) (Arabidopsis) | binds | –
– | Myc-JAZ1 (Arabidopsis) | – | binding [6]: binds; binding [7]: binds
binds | JAZ5 fused with the transcriptional activation domain (AD) (Arabidopsis) | no binding (only without SA in the yeast medium) | –
